# In paper PMC7819943, “Rice protein-binding microarrays: a tool to detect cis-acting elements near promoter regions in rice”:
# Sequences of proteins named here, by UniProt entry; tags and fusion partners are left off.
# UniProt Q0JBA9, entry or part of it: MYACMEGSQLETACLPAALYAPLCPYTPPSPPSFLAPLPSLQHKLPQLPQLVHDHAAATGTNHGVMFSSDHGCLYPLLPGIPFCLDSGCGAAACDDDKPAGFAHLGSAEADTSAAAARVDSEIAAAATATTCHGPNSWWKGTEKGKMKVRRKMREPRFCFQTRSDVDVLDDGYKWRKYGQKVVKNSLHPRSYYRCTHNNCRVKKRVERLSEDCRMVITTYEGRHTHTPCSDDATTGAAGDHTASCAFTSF
# The list shows a part of the results.
# Target: OsWRKY34 (Oryza sativa, UniProt Q0JBA9 1-250)
# Assay: protein-binding microarray (RPBM); PBS, 2% BSA, 51.3 ng/ul salmon testes DNA, 50 uM zinc acetate, 200 nM TF, 25 C, 1 h; high values mean tight binding
# Conditions: protein: recombinant; tags: N-terminal polyhistidine and DsRed monomer fusion (pET32a); label: CyDye5-dUTP incorporated in the synthesized complementary strand; 3' TTTTT single-stranded linker to array surface; dsDNA, one strand shown
# Outline: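 Per-feature fluorescence intensity (arbitrary units), read on an Axon 4000B scanner, is the binding signal. Transcription factors carrying an N-terminal polyhistidine tag and DsRed fusion were expressed in E. coli BL21-CodonPlus and purified on Ni–NTA. A custom Agilent array, made double-stranded by primer extension with Cy5-dUTP and blocked with 2% BSA, was incubated with 200 nM protein in PBS, 2% BSA, salmon testes DNA and 50 µM zinc acetate at 25 °C for 1 h and then washed.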
row,Sequence,binding signal
1,CCATTCCTACACGGATATACCAACATTGTTCTAAGCCCATCGGAGTCACCTAGTGCAG,9140 fluorescence intensity (a.u.)
2,GGGTAATGCGGTGCCCTTTTTCCCAGCTAGCGAGACCTCTCGGAGTCACCTAGTGCAG,8170 fluorescence intensity (a.u.)
3,GAGACGGTTCTGGTACTTTGTCCAATCATTTTGTGTCTTGCGGAGTCACCTAGTGCAG,10200 fluorescence intensity (a.u.)
4,AGTACTAGCTGGCATCGATTGGTTTCTTCCGTGTTCCTTTCGGAGTCACCTAGTGCAG,10800 fluorescence intensity (a.u.)
5,ATTCTTTCCATGCATTCGTTGCCTCTCAACTGCACCAGCTCGGAGTCACCTAGTGCAG,10800 fluorescence intensity (a.u.)
6,CGCTGACATTTCAAATCCCCGGGTACCCATCCGCCGTCCACGGAGTCACCTAGTGCAG,8650 fluorescence intensity (a.u.)
7,AGGCTTCCAATCTTGTGCTAATCTGCTGGTGAAGTATATGCGGAGTCACCTAGTGCAG,8480 fluorescence intensity (a.u.)
8,GCCTCTCTTTACGCTCGTGCCCACCGCCATGTTGATCTACCGGAGTCACCTAGTGCAG,11100 fluorescence intensity (a.u.)
9,TTTTTGTCTTTTATTGCTTCTTCTCCTGGATGGCATCTGACGGAGTCACCTAGTGCAG,9180 fluorescence intensity (a.u.)
10,ATGCGATTTTTTTCTTACCTTAACTGCAGACAATTAGTTACGGAGTCACCTAGTGCAG,9460 fluorescence intensity (a.u.)
11,AAACCTGGTCGAACCCAACCGCCTTCGTCCGGTCCGGACGCGGAGTCACCTAGTGCAG,9010 fluorescence intensity (a.u.)
12,CGCTTCTATCGCCACGTGTCTAGGGTTTGGGTTTTGATACCGGAGTCACCTAGTGCAG,14000 fluorescence intensity (a.u.)
13,TTTTGGAAATTAGGGGCGGGTTATACCCAGTTTTGCGGTTCGGAGTCACCTAGTGCAG,12700 fluorescence intensity (a.u.)
14,CGTCATTTTTTTTAACCTTTTCCTATACGTCTCATTTCTTCGGAGTCACCTAGTGCAG,9760 fluorescence intensity (a.u.)
15,GTTTTTAATGTTTATGTCACGTATGTTTAATCATTTATCTCGGAGTCACCTAGTGCAG,8330 fluorescence intensity (a.u.)
16,GATGTTTCAGGCAGCACATACGGATGTTTCTCGTATTTCGCGGAGTCACCTAGTGCAG,8030 fluorescence intensity (a.u.)
17,CATAGGGGAATCGGACTTTTTTTATCTATGTTGGTTTTTTCGGAGTCACCTAGTGCAG,13100 fluorescence intensity (a.u.)
18,TAAATGTGCTCTTGCCACCCGATATCGTTATCTCTACTGCCGGAGTCACCTAGTGCAG,8600 fluorescence intensity (a.u.)
19,TACGAGCTTCTCCTCCTCCGCTGGTCATCATCCTACCTGTCGGAGTCACCTAGTGCAG,8440 fluorescence intensity (a.u.)
20,AGATTAGATCATAGGCAGTCTTTCTTTTCTTTCTTTTTTTCGGAGTCACCTAGTGCAG,10200 fluorescence intensity (a.u.)
21,AGTTAATCCTTGTTAAACTTTGGTTTCAAAACAATTTCCCCGGAGTCACCTAGTGCAG,65500 fluorescence intensity (a.u.)
22,GTGTTCTGGTAGCTTTTCTTGGTACGCTGCGTTGGAAGGACGGAGTCACCTAGTGCAG,8150 fluorescence intensity (a.u.)
23,AACGCCACGCGAAGCTTTTTTGACCTCGCGCTTTTCCACCCGGAGTCACCTAGTGCAG,9730 fluorescence intensity (a.u.)
24,TGCATTCCTGTCAGAATCCTATGTTTTTCCTATTTCTCCGCGGAGTCACCTAGTGCAG,10900 fluorescence intensity (a.u.)
25,CCACAGCAGACTGGCTAGTAATTACTACTCCCTCCGTTTCCGGAGTCACCTAGTGCAG,8150 fluorescence intensity (a.u.)
26,GCGTCACCGCCTCAACTTGTCATCAGTCTGCCGCTCCCTCCGGAGTCACCTAGTGCAG,12800 fluorescence intensity (a.u.)
27,ATTCAAACATTAGGATTTTTTTCCTATATGCCTCATTCCTCGGAGTCACCTAGTGCAG,8230 fluorescence intensity (a.u.)

# As entered above:
# Value for CGTCATTTTTTTTAACCTTTTCCTATACGTCTCATTTCTTCGGAGTCACCTAGTGCAG under binding signal: 9760 fluorescence intensity (a.u.)
# Value for ATTCAAACATTAGGATTTTTTTCCTATATGCCTCATTCCTCGGAGTCACCTAGTGCAG under binding signal: 8230 fluorescence intensity (a.u.)
# Value for TACGAGCTTCTCCTCCTCCGCTGGTCATCATCCTACCTGTCGGAGTCACCTAGTGCAG under binding signal: 8440 fluorescence intensity (a.u.)

# Remaining list, next part.

row,Sequence,binding signal
1,ATAATTCCTTGTGTACTCATCCAGCTTTCAATACTACATACGGAGTCACCTAGTGCAG,9400 fluorescence intensity (a.u.)
2,GAAAAACCCACCCGGATCGATCGATATTCCCGGCGTTTCCCGGAGTCACCTAGTGCAG,8520 fluorescence intensity (a.u.)
3,ACTTTTGTACTTCTTTGATCTTTGTTAGTTTTGATCTGATCGGAGTCACCTAGTGCAG,9630 fluorescence intensity (a.u.)
4,AGTTTCGAAATATTTGACGCCGTTGACTTTTTATCAAATGCGGAGTCACCTAGTGCAG,28300 fluorescence intensity (a.u.)
5,TAGTTAGGAGTTGAGTTGACCAACTTAACTACCTTTCGCCCGGAGTCACCTAGTGCAG,10400 fluorescence intensity (a.u.)
6,TGCACTTATCTATTCTTTTCTATGTATTATGTTTTAGGTGCGGAGTCACCTAGTGCAG,8340 fluorescence intensity (a.u.)
7,CTCCCATCGATGTAACTCTCTCACTTTCTTCTCTCTAGAACGGAGTCACCTAGTGCAG,8600 fluorescence intensity (a.u.)
8,AGATATAGATGTCCCTCTTGTCACCTCCACCACCGTTGACCGGAGTCACCTAGTGCAG,14400 fluorescence intensity (a.u.)
9,GCTCTCATCAACTCGACTCGACCGGTAATCGATCGCGACTCGGAGTCACCTAGTGCAG,8640 fluorescence intensity (a.u.)
10,CTGTTAGTCCAAAAATGGATGGCTGGGGTGGGCTCTACTTCGGAGTCACCTAGTGCAG,12600 fluorescence intensity (a.u.)
11,TAAAACACTAATGAATCGATTGATCTCGTCTCACCAGTTACGGAGTCACCTAGTGCAG,8050 fluorescence intensity (a.u.)
12,GTCCCCATCCCATTCGGCCACCGATCCCAATCTCAATCTGCGGAGTCACCTAGTGCAG,8480 fluorescence intensity (a.u.)
13,TGTCCAACTTTTGCTGGTTCATCTGCATCGATCTTAATTCCGGAGTCACCTAGTGCAG,10700 fluorescence intensity (a.u.)
14,ACTAGTTAACACATATTCCTAGTCAAATTTGTTTTTTTTCCGGAGTCACCTAGTGCAG,10100 fluorescence intensity (a.u.)
15,TGCGGGTTGGGGATCTCATCGCGGCGGCGGCGGCGGACTACGGAGTCACCTAGTGCAG,9190 fluorescence intensity (a.u.)
16,ATTTGACCGCCGGTGTCGCCACCTCCCAGCCACTGGAGCACGGAGTCACCTAGTGCAG,8330 fluorescence intensity (a.u.)
17,ACTTTTACATGGTGTTTCCACTTTCCAGTTCCTTGTTTCTCGGAGTCACCTAGTGCAG,10000 fluorescence intensity (a.u.)
18,GGACGAGGTCTTCTAGCTCCATATTTTGTTTTGCTTTTCTCGGAGTCACCTAGTGCAG,12400 fluorescence intensity (a.u.)
19,GGGGTGAGTTAGACTGACATGTGGGGCCCGCCATTCTTTTCGGAGTCACCTAGTGCAG,10100 fluorescence intensity (a.u.)
20,CATGTCGGTCTGACTGGTCTTTACTCATATGCTCAAATCCCGGAGTCACCTAGTGCAG,8280 fluorescence intensity (a.u.)
21,CCAAAGTTAGGTCGTACAGTTTGACCAAGTTAATACTAGTCGGAGTCACCTAGTGCAG,8730 fluorescence intensity (a.u.)
22,GAATCTTTCTTTTCCTTTCCCCTTTTCGTTTCTGTTTTTTCGGAGTCACCTAGTGCAG,10600 fluorescence intensity (a.u.)
23,ACGAACGGTCAAATATGTTTGGAAAAGTCAACGGCGTCAACGGAGTCACCTAGTGCAG,10700 fluorescence intensity (a.u.)
24,CCCGCAAGAAACACCACACCTCGCCGCCGGCGACCCACCGCGGAGTCACCTAGTGCAG,8660 fluorescence intensity (a.u.)
25,CTAGTGAGCTGTGTAGTTCGTTGTGCCTATGACTGTTAACCGGAGTCACCTAGTGCAG,9690 fluorescence intensity (a.u.)
26,TTACTCGAGCCATTGCCACTTCTTTTTCTTCTTTGAATTACGGAGTCACCTAGTGCAG,9580 fluorescence intensity (a.u.)
27,ACCTAGCATCAATCCTCGCTGAACATTATTTGTTATATACCGGAGTCACCTAGTGCAG,11700 fluorescence intensity (a.u.)
